Measured values taken from paper doi:10.1101/2024.03.20.585881.
These are yes or no findings as the source states them, for the method shown. In cells and extracts the contact can be indirect. Here binding means that the protein was enriched with, or labelled near, the bait; the list need not be complete.

The chains behind the UniProt entries cited, without tags or fusion partners.
UniProt Q5T5U3: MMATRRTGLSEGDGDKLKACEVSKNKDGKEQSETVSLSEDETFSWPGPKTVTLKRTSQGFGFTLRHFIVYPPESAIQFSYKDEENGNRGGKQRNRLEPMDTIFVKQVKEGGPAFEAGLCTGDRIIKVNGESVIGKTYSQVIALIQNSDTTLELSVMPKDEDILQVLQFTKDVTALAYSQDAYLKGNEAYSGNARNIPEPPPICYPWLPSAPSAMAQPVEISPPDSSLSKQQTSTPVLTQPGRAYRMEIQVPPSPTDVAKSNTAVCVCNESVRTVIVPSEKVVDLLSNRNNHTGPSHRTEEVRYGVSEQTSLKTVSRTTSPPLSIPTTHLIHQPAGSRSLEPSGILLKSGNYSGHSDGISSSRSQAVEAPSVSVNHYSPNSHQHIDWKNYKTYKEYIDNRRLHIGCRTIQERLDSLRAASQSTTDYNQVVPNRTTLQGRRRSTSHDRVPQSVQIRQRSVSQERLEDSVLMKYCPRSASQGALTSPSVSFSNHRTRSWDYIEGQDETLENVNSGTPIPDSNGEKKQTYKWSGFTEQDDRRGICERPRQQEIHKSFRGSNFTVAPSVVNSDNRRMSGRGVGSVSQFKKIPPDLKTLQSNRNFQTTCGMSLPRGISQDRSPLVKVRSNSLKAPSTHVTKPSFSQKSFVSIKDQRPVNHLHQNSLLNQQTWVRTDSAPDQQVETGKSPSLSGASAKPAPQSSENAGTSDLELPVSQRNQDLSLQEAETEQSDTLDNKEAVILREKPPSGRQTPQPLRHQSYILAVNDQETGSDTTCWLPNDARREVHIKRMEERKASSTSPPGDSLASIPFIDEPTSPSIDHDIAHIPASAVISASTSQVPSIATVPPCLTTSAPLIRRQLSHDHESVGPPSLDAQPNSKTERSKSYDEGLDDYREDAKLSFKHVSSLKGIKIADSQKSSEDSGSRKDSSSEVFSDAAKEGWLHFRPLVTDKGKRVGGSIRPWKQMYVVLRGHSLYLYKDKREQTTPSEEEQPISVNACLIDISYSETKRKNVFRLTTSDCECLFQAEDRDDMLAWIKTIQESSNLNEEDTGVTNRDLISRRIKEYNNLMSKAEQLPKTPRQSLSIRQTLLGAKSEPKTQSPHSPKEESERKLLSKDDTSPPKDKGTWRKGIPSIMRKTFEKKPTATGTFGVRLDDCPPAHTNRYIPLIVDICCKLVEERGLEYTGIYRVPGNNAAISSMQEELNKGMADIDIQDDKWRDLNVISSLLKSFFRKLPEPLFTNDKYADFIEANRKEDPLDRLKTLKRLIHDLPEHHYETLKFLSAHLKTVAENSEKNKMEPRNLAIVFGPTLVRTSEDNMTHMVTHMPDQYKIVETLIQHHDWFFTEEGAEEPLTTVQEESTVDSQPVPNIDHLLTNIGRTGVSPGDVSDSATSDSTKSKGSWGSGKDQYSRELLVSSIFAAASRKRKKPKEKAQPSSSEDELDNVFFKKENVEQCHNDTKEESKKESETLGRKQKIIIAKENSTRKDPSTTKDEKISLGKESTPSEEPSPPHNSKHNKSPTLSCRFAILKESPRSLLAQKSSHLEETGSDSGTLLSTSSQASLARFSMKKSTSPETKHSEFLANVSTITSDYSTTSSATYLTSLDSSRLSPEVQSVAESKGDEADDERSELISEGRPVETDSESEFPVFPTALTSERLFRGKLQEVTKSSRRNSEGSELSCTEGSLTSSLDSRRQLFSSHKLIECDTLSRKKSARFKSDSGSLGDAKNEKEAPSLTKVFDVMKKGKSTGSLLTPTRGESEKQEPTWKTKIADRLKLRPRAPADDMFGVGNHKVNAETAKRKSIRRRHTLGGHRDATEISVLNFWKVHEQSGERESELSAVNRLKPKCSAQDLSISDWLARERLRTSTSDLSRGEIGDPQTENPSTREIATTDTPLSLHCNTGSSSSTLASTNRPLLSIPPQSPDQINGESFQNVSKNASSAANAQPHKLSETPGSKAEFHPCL
UniProt Q8IUR7: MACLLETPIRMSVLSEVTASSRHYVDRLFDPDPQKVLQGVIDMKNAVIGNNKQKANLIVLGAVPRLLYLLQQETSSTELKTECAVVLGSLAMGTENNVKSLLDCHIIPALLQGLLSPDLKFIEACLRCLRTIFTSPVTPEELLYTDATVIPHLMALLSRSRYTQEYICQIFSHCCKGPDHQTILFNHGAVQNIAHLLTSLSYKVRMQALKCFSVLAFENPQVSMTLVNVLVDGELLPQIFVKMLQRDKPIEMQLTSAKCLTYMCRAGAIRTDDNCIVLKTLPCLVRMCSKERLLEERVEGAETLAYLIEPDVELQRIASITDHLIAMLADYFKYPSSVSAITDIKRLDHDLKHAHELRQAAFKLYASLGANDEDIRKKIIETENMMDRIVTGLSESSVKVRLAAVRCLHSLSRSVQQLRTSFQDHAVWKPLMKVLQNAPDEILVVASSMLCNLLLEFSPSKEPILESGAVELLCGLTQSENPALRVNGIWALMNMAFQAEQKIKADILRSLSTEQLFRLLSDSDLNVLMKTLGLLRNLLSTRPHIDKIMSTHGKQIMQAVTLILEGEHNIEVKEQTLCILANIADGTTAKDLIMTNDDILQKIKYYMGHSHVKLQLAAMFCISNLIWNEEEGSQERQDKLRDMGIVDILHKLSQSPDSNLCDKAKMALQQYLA
UniProt P49840: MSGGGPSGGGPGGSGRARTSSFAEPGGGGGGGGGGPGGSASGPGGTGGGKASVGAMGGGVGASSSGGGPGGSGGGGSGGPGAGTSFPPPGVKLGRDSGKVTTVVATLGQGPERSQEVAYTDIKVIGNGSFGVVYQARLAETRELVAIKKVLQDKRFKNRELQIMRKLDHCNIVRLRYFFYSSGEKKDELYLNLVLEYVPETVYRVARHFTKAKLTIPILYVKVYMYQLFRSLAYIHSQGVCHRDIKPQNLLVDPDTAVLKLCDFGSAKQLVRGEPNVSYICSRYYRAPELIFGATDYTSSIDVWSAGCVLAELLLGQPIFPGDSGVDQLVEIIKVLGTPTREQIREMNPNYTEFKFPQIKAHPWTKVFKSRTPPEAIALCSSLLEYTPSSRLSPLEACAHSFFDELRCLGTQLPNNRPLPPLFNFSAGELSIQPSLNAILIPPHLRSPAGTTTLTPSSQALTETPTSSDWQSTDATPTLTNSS
UniProt P35221: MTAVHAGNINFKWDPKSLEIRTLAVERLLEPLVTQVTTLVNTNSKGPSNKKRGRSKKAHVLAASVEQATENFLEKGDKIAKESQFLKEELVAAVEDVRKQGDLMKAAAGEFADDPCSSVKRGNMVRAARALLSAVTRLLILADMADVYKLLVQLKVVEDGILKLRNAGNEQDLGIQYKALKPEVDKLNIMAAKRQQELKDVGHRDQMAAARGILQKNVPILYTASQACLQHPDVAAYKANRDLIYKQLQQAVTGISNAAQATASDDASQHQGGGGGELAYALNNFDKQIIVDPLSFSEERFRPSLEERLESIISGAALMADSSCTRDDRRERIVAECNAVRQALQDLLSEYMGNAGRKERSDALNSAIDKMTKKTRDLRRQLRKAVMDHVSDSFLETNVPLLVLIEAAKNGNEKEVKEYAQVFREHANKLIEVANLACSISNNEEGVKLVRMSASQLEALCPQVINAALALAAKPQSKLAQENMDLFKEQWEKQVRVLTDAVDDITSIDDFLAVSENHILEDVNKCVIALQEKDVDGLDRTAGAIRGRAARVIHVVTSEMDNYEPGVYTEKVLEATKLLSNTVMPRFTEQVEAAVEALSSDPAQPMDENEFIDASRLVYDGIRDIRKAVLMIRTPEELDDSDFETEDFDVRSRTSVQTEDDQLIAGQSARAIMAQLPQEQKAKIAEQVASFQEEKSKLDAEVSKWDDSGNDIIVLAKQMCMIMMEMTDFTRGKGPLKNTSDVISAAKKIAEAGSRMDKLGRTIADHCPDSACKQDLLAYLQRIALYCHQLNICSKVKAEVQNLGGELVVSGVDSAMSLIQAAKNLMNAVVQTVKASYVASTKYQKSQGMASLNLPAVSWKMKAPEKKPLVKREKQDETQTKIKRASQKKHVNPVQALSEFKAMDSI
UniProt P35222: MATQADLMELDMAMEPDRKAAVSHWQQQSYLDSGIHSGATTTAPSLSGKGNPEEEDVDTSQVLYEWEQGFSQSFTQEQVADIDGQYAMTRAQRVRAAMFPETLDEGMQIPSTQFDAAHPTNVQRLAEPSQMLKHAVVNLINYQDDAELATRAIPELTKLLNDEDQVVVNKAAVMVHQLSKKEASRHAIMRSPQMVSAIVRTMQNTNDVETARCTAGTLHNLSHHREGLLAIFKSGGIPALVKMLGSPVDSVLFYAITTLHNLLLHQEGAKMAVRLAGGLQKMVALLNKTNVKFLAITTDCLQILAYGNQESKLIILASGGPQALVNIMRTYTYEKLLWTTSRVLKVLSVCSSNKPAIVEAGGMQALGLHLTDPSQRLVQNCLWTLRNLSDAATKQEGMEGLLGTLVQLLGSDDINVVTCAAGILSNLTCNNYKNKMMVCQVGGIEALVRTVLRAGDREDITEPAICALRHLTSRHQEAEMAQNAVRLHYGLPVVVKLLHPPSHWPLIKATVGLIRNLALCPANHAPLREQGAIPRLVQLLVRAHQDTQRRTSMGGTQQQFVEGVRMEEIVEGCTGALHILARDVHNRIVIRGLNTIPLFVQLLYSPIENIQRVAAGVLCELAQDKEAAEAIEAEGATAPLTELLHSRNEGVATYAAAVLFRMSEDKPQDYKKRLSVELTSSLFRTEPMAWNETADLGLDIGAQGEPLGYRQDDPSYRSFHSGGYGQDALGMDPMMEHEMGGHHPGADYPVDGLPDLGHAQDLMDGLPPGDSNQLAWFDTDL
UniProt Q9UKB1: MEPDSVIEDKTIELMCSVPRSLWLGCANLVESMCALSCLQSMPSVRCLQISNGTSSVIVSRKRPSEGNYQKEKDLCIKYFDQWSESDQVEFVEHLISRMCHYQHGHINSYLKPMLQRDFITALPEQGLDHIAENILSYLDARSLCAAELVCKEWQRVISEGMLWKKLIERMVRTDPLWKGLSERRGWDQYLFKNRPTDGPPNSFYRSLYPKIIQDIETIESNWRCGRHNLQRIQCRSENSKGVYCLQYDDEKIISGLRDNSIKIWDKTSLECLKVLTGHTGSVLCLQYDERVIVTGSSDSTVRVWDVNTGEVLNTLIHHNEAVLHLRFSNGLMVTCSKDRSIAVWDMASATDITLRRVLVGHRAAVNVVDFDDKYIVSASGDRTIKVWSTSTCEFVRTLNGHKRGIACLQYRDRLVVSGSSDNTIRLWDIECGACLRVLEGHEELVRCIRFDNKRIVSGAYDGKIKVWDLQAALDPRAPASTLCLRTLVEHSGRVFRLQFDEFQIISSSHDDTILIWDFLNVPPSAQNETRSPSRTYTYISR

Assays:
Experiment in all cases: affinity purification with mass spectrometry
[1] = biological target: eGFP-Axin1 (UniProt O15169)
[2] = biological target: 3xFLAG-eGFP-Axin1 (UniProt O15169)
[3] = biological target: 3xFLAG-mScarlet-APC (human (endogenous in HEK293)) (UniProt P25054)

binding [1]	binding [2]	binding [3]	Substance
binds	binds		ARHGAP21 (from UniProt Q5T5U3 1-1958)
		binds	ARMC8 (from UniProt Q8IUR7 1-673)
		binds	Axin1 (endogenous) (from UniProt O15169 1-862)
	binds		CTBP2 (from UniProt P56545 1-445)
binds	binds		GSK3α (from UniProt P49840 1-483) (enzyme)
binds	binds		α-catenin (from UniProt P35221 1-906)
binds	binds		β-catenin (from UniProt P35222 1-781)
binds	binds		βTrCP (FBXW11) (from UniProt Q9UKB1 1-542)
